Results are given in words; binding and its absence hold for the method and conditions named. Binding can be weak; no strength is given.
B1: scFv T1014G03 (scFv)
scFv: EVQLVQSGAEVKMPGASVKLSCRVSGDTFTAYFIHWVRQAPGQGLEWMGWFNPISGTAGSAEKFRGRVAMTRDTSISTAYMELNRLTFDDTAVYYCARQHRGNTFDPWGQGTLVTVSSGGGGSGGGGSGGGGSAQSALTQPASVSGSPGQSITISCTGTSSDIGAYKYVSWYQQHPGKAPKLVIYEVSNRPSGVSSRFSGSKSGQTASLTISGLQADDEADYYCNSYQGYNTWVFGGGTKVTVLG
B2: scFv T1014F08 (scFv)
scFv: EVQLVQSGAEVKKPGASVKLSCRVSGDTFTAYFIHWVRQAPGQGPEWMGWFNPISGTAGSAARFRGRVAMTRDTSISTAYMELNRLTFDDTAVYYCARQHRGNTFDPWGKGTLVTVSSGGGGSGGGGSGGGGSALPVLTQPPSASGSPGQSVTISCTGTSSDVGGYKYVSWYQQHPGKAPKLMIYEVSMRPSGVPDRFSGSKSGNTASLTVSGLQAEDEADYYCASYAGSNNWVFGGGTKLTVLG
B3: scFv T1014G04 (scFv)
scFv: EVQLVQSGADVKRPGASVKVSCKISGDSFTAYFIHWVRQAPGQGLEWMGWFNPDSGTADSAQKFHGRVTMTRDTSSSTAFLELSRLRSDDTAVYYCVRQHRGNTFAPWGRGTLVTVSSGGGGSGGGGSGGGGSAQPVLTQPPSASGSPGQSVTISCTGTSSDVGSYEYVSWYQQHPGKAPRLMISEVNKRPSGVPNRFSGSKSGNTASLTVSGLQADDEADYYCSSYAGSNNWVFGGGTKVTVLG
B4: scFv T1014B11 (scFv)
scFv: EVQLVQSGAEVKKPGASVKVSCKISGDSFTAYFIHWLRQAPGEGLEWMGWFNPISGTAGSPQKFHGRVAMTRDTSISTAYMELTRLASDDTAIYYCARQHHSNTFDPWGQGTLVTVSSGGGGSGGGGSGGGGSAQSALTQPASVSGSPGQSITISCTGTNSDVGGYNYVSWYQQHPGKAPKLMIYEVNNRPSGVSNRFSGSKSGNTASLTISGLQADDEADYYCSSYTTSNTWVFGGGTKLTVLG
B5: scFv T1014A04 (scFv)
scFv: EVQLVQSGADVKRPGASVKVSCKISGDSFNAYFIHWVRQAPGQGLEWMGWFNPDSGTADSAQKFHGRVTMTRDTSSSTAFLELSRLRSDDTAVYYCVRQHRGNTFAPWGRGTMVTVSSGGGGSGGGGSGGGGSAQSVLTQPPSASGSPGQSVTISCTGTTSDVGGYNYVSWYQQHPGKAPKLMIYGVNQRPSGVPDRFSGSKSGNTASLTVSGLQAEDEADYYCSSYAGSNNWVFGGGTKLTVLG

Each binder was assayed against Soluble, purified TR4 fusion protein (human) (assay: specificity phage ELISA, antigen coated at 1 ug/ml, anti-M13-HRP detection).

binding, binds:
B1, B2, B3, B4, B5

From patent US20060270837A1 (published 2006)
